Results are given in words; binding and its absence hold for the method and conditions named.
Target: Chandipura virus matrix protein, full length, after TEV cleavage of GFP_CHPV_M (Chandipura virus) (UniProt Q9WH76)
Assay: SEC; analytical size exclusion on a self-packed Superdex 200 column (about 12 mL bed), buffer E (20 mM HEPES pH 7.5, 200 mM NaCl), 4-6 °C, calibrated with Bio-Rad gel filtration standards; elution around 10.25 mL between Ovalbumin (44 kDa) and Myoglobin (17 kDa); both purified

In the case of “Chandipura virus matrix protein, full length, after TEV cleavage of GFP_CHPV_M (from UniProt Q9WH76 1-229)”, the binding is reported as “no binding”.
